Data from the supplement of paper PMC10849652.
The list shows a part of the results.

Sequences of proteins named here, by UniProt entry; tags and fusion partners are left off. A change or cut given only in a name is not applied to a line headed by its entry.
UniProt P18206: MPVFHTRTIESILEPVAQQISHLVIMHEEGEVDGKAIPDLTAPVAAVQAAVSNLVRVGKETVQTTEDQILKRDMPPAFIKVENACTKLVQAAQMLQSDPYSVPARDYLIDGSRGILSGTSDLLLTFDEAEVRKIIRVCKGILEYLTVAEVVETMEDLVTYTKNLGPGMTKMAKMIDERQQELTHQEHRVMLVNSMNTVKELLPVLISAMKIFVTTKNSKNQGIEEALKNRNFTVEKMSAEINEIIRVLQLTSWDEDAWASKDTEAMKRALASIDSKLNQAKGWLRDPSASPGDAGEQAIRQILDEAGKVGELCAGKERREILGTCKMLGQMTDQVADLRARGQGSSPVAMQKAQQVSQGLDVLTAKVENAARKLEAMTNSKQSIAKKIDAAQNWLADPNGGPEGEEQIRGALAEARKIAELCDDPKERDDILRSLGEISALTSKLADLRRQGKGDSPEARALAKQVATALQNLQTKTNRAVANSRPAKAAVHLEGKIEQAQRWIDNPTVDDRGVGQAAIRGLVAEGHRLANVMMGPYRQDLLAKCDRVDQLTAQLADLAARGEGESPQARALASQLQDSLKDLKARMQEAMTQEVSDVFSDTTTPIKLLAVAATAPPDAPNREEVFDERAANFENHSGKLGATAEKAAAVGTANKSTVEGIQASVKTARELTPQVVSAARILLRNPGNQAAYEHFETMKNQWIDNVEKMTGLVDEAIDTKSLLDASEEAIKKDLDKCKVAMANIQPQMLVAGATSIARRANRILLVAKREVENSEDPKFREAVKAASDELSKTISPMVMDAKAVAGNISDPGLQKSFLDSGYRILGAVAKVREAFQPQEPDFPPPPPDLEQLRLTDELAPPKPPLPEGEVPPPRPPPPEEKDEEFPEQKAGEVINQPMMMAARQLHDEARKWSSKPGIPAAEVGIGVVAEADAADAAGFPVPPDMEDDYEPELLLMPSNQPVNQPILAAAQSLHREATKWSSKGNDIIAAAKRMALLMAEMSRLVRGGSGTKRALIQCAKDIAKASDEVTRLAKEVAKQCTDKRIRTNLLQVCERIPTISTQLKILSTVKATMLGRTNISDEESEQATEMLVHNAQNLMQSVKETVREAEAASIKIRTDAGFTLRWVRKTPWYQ
UniProt Q9UBK9, whole entry, looked up: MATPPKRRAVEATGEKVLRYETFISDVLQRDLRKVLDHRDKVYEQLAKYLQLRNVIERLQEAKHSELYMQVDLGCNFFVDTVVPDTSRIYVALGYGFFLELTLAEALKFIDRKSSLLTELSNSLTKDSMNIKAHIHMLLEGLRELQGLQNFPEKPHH
UniProt Q8IX04: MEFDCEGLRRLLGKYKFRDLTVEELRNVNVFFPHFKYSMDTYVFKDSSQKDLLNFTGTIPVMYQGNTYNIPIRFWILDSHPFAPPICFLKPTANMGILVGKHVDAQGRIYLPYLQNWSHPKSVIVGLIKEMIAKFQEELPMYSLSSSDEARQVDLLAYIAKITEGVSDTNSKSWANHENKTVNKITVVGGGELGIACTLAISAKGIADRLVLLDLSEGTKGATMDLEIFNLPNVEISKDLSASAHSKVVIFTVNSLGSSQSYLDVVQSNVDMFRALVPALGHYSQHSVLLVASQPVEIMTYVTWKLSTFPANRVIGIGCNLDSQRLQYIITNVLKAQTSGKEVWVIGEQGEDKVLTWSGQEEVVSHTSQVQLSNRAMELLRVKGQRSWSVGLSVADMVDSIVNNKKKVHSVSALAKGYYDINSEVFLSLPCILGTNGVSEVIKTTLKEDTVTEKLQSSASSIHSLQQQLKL
UniProt Q9NYH9: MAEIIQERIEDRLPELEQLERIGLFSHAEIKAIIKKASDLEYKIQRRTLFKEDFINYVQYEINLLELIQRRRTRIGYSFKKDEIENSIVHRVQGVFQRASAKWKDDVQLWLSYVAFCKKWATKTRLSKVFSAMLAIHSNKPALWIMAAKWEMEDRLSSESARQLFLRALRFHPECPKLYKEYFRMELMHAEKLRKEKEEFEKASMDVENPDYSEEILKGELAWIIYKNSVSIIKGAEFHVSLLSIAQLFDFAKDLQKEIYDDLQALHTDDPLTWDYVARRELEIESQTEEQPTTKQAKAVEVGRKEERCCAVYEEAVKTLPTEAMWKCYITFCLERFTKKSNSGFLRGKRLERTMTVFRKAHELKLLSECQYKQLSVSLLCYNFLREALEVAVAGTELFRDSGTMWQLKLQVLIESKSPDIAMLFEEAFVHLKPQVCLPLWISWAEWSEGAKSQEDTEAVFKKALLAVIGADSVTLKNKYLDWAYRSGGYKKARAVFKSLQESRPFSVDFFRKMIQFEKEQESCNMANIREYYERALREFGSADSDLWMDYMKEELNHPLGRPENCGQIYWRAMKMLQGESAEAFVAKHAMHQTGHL
UniProt P22415: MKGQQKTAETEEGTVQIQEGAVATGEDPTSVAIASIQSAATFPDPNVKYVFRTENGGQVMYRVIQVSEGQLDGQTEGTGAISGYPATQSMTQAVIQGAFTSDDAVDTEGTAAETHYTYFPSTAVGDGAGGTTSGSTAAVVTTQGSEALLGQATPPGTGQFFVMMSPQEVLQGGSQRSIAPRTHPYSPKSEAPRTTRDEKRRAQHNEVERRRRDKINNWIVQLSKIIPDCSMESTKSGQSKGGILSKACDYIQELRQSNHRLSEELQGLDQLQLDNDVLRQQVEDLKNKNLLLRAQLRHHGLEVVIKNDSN
UniProt Q8TED0: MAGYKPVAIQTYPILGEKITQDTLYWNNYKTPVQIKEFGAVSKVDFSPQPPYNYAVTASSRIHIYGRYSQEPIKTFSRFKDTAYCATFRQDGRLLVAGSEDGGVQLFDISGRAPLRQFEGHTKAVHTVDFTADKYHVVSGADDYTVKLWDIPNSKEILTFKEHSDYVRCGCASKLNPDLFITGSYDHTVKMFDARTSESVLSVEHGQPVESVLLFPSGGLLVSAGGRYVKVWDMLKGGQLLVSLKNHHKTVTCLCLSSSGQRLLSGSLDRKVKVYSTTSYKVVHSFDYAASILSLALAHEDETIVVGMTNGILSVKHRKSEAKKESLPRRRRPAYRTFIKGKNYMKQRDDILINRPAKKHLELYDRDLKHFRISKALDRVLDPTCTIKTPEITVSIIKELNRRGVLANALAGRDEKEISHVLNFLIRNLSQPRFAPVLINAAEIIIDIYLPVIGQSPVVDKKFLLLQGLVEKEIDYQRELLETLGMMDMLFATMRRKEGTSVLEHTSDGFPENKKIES
UniProt Q53GS9: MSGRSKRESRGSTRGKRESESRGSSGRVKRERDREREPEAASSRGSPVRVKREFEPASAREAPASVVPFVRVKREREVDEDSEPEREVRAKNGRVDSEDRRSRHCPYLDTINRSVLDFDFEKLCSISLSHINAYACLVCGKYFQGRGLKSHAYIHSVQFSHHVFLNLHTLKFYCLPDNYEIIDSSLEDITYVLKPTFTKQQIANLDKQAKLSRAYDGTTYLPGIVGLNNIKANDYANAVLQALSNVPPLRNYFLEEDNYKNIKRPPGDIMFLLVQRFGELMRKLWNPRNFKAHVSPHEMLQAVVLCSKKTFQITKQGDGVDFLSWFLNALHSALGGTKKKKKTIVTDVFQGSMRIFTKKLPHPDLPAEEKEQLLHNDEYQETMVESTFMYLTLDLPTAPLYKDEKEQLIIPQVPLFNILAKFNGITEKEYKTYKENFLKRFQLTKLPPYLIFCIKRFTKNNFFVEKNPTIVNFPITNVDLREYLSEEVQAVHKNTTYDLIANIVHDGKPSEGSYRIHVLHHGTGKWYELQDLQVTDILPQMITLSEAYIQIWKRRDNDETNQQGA
UniProt Q9NVA1: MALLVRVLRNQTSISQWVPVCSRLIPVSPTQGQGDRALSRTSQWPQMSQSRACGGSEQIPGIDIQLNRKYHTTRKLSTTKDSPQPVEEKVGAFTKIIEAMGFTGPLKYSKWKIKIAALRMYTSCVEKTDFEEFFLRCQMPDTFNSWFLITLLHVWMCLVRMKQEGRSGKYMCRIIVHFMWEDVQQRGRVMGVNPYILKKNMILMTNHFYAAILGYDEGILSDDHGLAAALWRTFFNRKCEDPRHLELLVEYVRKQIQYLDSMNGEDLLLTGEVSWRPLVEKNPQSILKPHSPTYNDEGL
UniProt P09327: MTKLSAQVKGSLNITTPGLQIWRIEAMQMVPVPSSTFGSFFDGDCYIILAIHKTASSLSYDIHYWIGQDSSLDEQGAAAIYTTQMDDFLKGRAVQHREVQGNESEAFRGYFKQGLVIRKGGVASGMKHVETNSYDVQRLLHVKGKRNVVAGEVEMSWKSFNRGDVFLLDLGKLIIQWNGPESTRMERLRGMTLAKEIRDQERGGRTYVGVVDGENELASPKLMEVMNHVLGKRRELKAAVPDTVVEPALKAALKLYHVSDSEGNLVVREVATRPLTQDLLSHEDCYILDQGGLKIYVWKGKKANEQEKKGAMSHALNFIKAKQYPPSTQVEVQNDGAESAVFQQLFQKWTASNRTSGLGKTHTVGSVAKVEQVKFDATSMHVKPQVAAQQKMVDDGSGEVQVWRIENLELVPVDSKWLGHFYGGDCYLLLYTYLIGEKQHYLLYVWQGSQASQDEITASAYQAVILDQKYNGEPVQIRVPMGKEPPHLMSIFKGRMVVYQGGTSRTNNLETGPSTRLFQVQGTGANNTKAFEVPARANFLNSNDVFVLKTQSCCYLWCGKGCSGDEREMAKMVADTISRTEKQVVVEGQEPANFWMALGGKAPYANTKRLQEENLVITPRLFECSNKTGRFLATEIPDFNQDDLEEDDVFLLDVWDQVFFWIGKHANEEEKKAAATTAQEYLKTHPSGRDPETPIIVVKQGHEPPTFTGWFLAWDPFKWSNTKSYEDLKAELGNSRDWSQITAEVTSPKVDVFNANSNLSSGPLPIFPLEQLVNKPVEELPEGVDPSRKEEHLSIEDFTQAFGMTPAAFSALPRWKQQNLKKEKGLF
UniProt Q9HAU5: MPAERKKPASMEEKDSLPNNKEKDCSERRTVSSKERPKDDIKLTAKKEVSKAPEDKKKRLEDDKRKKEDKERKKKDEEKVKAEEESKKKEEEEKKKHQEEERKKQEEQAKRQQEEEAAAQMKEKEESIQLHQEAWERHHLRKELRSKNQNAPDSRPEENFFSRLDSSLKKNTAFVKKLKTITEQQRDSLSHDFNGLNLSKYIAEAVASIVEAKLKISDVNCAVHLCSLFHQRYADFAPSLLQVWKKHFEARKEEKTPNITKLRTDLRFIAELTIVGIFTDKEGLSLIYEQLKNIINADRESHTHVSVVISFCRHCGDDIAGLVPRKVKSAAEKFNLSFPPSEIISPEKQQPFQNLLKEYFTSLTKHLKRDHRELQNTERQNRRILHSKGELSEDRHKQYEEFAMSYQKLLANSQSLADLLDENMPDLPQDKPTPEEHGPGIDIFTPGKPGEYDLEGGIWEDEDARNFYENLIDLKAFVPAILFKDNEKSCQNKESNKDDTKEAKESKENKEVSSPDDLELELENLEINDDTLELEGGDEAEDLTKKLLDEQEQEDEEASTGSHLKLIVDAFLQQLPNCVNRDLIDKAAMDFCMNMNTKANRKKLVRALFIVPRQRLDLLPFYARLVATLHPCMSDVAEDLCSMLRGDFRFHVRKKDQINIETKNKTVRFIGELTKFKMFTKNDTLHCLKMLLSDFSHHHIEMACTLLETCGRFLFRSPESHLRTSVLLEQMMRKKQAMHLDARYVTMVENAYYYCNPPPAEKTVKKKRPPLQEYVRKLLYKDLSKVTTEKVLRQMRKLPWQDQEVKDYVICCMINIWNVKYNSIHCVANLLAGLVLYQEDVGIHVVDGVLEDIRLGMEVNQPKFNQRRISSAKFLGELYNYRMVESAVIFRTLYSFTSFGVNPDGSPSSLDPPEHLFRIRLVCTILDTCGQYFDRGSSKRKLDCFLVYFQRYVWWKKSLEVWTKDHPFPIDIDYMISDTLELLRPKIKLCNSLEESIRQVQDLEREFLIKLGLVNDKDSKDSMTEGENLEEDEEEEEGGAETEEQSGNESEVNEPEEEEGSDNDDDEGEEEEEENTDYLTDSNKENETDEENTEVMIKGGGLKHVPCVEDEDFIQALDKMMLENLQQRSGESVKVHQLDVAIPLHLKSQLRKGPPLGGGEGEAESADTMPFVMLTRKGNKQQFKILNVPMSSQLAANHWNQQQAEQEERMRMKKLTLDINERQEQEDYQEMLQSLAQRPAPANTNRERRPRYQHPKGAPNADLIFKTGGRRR
UniProt Q9P0L0: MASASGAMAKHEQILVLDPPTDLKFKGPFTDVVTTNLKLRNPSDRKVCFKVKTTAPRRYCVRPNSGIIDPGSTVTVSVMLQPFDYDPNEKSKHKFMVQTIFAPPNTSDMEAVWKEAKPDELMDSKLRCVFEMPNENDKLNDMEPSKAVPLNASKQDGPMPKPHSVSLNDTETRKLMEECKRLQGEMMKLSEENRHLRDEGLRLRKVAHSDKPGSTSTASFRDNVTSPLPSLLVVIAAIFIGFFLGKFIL
UniProt O14949: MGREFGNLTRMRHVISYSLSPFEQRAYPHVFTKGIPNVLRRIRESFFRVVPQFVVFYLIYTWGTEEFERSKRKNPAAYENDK
UniProt Q9BV40: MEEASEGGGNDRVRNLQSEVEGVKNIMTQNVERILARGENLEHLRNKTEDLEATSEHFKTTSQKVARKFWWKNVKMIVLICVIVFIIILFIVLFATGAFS

The targets below were run with Cc1cc(Nc2cc(CN3CCOCC3)c3nc(C)c(Cc4ccc(Cl)cc4F)n3n2)n[nH]1 [gandotinib] (assay: log2 fold change, soluble protein after heating vs DMSO (PISA); higher = thermal stabilisation; K562 lysate, 10 uM; active = over 0.2 and 3.5 SD of the protein, either way, in both replicates (recomputed)).
In short: (§1)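 K562 pellets were dounce-homogenised in PBS pH 7.4 containing 1 mM MgCl2, and the crude extract, at 1 mg/mL protein, was exposed to 10 μM compound for 30 min. Aliquots were heated for 3 min across 48°C-58°C, pooled, brought to 0.5% NP-40 at 4°C and spun at 21,000xg for 90 min, with the supernatant taken as soluble protein. TMTpro 16plex LC-MS/MS with equalised channel sums quantified that protein. Values are log-two fold changes in thermal stability relative to solvent controls, taken from duplicates.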

Target | log2 fold change
VCL (UniProt P18206) | inactive: 0.042
UXT isoform 2 (UniProt Q9UBK9) | inactive: 0.084
UEVLD (UniProt Q8IX04) | inactive: -0.023
UTP6 (UniProt Q9NYH9) | inactive: -0.073
USF1 (UniProt P22415) | inactive: 0.075
UTP15 (UniProt Q8TED0) | inactive: 0.033
USP39 (UniProt Q53GS9) | inactive: -0.102
UQCC1 (UniProt Q9NVA1) | inactive: 0.004
VIL1 (UniProt P09327) | inactive: -0.124

The targets below were run with Cc1cc(Nc2cc(N3CCN(C)CC3)nc(Sc3ccc(NC(=O)C4CC4)cc3)n2)n[nH]1 [tozasertib] in the same assay as above.
In short: as §1

Target | log2 fold change
UPF2 (UniProt Q9HAU5) | inactive: -0.009
VDAC2 isoform 2 (UniProt P45880) | inactive: 0.001
USP10 isoform 2 (UniProt Q14694) | inactive: -0.014
VCX3B (UniProt Q9H321) | inactive: 0.044
UFL1 (UniProt O94874) | inactive: 0.016
USP48 isoform 8 (UniProt Q86UV5) | inactive: 0.008
UPF3B (UniProt Q9BZI7) | inactive: 0.031
VAV3 isoform 4 (UniProt Q9UKW4) | inactive: -0.093
UGDH (UniProt O60701) | inactive: -0.073
USP8 (UniProt P40818) | inactive: -0.013
UFD1 isoform 1 (UniProt Q92890) | inactive: 0.028
VAPA (UniProt Q9P0L0) | inactive: 0.039
VAC14 (UniProt Q08AM6) | inactive: -0.005
USP25 (UniProt Q9UHP3) | inactive: -0.003
VAMP7 (UniProt P51809) | inactive: -0.012
UHRF1BP1L (UniProt A0JNW5) | inactive: 0.017

Target | log2 fold change
VANGL1 (UniProt Q8TAA9) | inactive: 0.016
VDAC1 (UniProt P21796) | inactive: -0.003
VARS2, A0A0G2JL52 | inactive: 0.027
USP15 (UniProt Q9Y4E8) | inactive: 0.009
UQCRQ (UniProt O14949) | inactive: 0.008
VAMP8 (UniProt Q9BV40) | inactive: 0.025
UGGT1 (UniProt Q9NYU2) | inactive: -0.008
VCL (UniProt P18206) | inactive: -0.002
UXT isoform 2 (UniProt Q9UBK9) | inactive: -0.053
UEVLD (UniProt Q8IX04) | inactive: -0.019
UTP6 (UniProt Q9NYH9) | inactive: -0.002
USF1 (UniProt P22415) | inactive: 0.047
UTP15 (UniProt Q8TED0) | inactive: -0.011
USP39 (UniProt Q53GS9) | inactive: 0.021
UQCC1 (UniProt Q9NVA1) | inactive: -0.009
VIL1 (UniProt P09327) | inactive: 0.009

The targets below were run with Cc1ccc(-n2nc(C(C)(C)C)cc2NC(=O)Nc2ccc(OCCN3CCOCC3)c3ccccc23)cc1 [doramapimod] in the same assay as above.
In short: as §1

Target | log2 fold change
UPF2 (UniProt Q9HAU5) | inactive: 0.052
VDAC2 isoform 2 (UniProt P45880) | inactive: -0.003
USP10 isoform 2 (UniProt Q14694) | inactive: -0.016
VCX3B (UniProt Q9H321) | inactive: -0.04
UFL1 (UniProt O94874) | inactive: 0.007
USP48 isoform 8 (UniProt Q86UV5) | inactive: 0.024
UPF3B (UniProt Q9BZI7) | inactive: 0.003
VAV3 isoform 4 (UniProt Q9UKW4) | inactive: 0.325
UGDH (UniProt O60701) | inactive: -0.053
USP8 (UniProt P40818) | inactive: 0.001
UFD1 isoform 1 (UniProt Q92890) | inactive: 0.041
VAPA (UniProt Q9P0L0) | inactive: -0.055
VAC14 (UniProt Q08AM6) | inactive: 0.037
USP25 (UniProt Q9UHP3) | inactive: 0.005
VAMP7 (UniProt P51809) | inactive: 0.051
UHRF1BP1L (UniProt A0JNW5) | inactive: -0.001

Target | log2 fold change
VANGL1 (UniProt Q8TAA9) | inactive: -0.043
VDAC1 (UniProt P21796) | inactive: -0.029
VARS2, A0A0G2JL52 | inactive: 0.012
USP15 (UniProt Q9Y4E8) | inactive: -0.029
UQCRQ (UniProt O14949) | inactive: 0.025
VAMP8 (UniProt Q9BV40) | inactive: -0.011
UGGT1 (UniProt Q9NYU2) | inactive: -0.002
VCL (UniProt P18206) | inactive: 0.014
UXT isoform 2 (UniProt Q9UBK9) | inactive: 0.012
UEVLD (UniProt Q8IX04) | inactive: 0.036
UTP6 (UniProt Q9NYH9) | inactive: -0.023
USF1 (UniProt P22415) | inactive: 0.03
UTP15 (UniProt Q8TED0) | inactive: -0.009
USP39 (UniProt Q53GS9) | inactive: -0.002
UQCC1 (UniProt Q9NVA1) | inactive: -0.089
VIL1 (UniProt P09327) | inactive: 0.058
